No constants are given. Whether binding was seen depends on the method and setting. In cells and extracts the contact can be indirect. Some binding calls cover weakened binding; strength is not graded here.

Amino acid sequences for entries named in this document (tags omitted). Residues count along the entry.
UniProt P63165, residues 1-97: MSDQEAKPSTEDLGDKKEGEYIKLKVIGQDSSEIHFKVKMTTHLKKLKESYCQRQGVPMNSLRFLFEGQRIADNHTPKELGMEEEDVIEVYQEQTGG

Drawing on article doi:10.1101/2022.07.03.498625, this text covers binding for 1 substance.

This assay deals with HA-tagged wild type Zbtb14 (zebrafish). Description: co-IP.

As to GFP-SUMO1 (from UniProt P63165 1-97), the binding result was “binds”.
